The experiment concerns the target T1, FLAG-Piwi (Drosophila melanogaster) (UniProt Q9VKM1).
T1 sequence: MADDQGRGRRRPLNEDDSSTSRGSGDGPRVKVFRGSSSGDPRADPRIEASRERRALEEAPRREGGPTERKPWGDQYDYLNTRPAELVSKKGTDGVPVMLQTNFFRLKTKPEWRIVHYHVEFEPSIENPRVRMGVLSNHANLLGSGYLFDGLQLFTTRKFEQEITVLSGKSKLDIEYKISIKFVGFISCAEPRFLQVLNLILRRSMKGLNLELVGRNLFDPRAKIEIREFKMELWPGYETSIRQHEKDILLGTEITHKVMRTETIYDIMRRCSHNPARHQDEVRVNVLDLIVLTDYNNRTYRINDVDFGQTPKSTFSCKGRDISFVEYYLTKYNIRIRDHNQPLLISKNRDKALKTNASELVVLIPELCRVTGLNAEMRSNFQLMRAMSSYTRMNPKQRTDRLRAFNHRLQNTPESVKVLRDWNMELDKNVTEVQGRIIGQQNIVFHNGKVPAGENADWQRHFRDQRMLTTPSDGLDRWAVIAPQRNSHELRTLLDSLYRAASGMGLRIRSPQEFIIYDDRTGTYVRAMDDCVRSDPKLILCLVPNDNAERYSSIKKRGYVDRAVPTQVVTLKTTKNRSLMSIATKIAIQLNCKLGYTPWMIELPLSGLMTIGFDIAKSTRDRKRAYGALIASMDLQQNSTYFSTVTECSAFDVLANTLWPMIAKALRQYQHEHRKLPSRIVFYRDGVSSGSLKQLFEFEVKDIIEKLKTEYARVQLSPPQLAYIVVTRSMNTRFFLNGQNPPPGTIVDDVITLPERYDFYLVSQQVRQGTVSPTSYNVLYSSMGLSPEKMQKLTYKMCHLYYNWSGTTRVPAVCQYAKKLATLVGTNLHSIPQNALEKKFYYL
The experiment is described as follows: co-IP.

No constants are given. Whether binding was seen depends on the method and setting. Binding seen in cells or lysates may run through a third protein. Some binding calls cover weakened binding; strength is not graded here. Tags and fused reporters may be left off the sequences shown.

B1: Maelstrom (protein, UniProt Q9VNS0 1-459)
chain: MAPKKHSGFMMFVNEWRNRNAEGRRMTLAQAVSHCGTIWEKMNTQQRGPYNSGGKDANVAQRAKRESSNGHGQVDKAQREATESLMDMKRTIERLVLNAKMSHDLENAKFVFVAFNYFTKALTTDVYVPAEFAACEYSLKEGIRSIYSTMIDPGQIIFGQGSDALLHSSTTHDLPLPPNALGEKNMTKLYRNIVDYLSKCQGKGKTLVVFTPAENITMVKSCFRYLECDDDFRDGGEKIQVFDIQYLLFILKKEVMNVADLNDEKINKFATDAFFKKDFFEFTAGIACQYHEDNDRTKYCTQSMVTRWAYTFTDFMCGDLAITVQPGKHIPAQTKPNYLIISSYASSLDHESSFDSFYSLPGSGVKKESQPEACSLSSSRLSVASSSYKPIDHTSFAANLNEVSEFPSLGMRNSSKHHGIAASAQREWNARNLPTHSRLIRKVSDNDFSVNGADGKLKK
Take B1: the binding result is “binds”.

The record behind these values is paper doi:10.64898/2025.12.16.694471.
